# In patent US20160272716A1 (AGENSYS, published 2016):
# Protein sequences, listed by entry. Tags and fused reporters are not part of them. Lines headed by an entry give the natural chain unless they say otherwise; changes in a name come on top.
# UniProt P36888: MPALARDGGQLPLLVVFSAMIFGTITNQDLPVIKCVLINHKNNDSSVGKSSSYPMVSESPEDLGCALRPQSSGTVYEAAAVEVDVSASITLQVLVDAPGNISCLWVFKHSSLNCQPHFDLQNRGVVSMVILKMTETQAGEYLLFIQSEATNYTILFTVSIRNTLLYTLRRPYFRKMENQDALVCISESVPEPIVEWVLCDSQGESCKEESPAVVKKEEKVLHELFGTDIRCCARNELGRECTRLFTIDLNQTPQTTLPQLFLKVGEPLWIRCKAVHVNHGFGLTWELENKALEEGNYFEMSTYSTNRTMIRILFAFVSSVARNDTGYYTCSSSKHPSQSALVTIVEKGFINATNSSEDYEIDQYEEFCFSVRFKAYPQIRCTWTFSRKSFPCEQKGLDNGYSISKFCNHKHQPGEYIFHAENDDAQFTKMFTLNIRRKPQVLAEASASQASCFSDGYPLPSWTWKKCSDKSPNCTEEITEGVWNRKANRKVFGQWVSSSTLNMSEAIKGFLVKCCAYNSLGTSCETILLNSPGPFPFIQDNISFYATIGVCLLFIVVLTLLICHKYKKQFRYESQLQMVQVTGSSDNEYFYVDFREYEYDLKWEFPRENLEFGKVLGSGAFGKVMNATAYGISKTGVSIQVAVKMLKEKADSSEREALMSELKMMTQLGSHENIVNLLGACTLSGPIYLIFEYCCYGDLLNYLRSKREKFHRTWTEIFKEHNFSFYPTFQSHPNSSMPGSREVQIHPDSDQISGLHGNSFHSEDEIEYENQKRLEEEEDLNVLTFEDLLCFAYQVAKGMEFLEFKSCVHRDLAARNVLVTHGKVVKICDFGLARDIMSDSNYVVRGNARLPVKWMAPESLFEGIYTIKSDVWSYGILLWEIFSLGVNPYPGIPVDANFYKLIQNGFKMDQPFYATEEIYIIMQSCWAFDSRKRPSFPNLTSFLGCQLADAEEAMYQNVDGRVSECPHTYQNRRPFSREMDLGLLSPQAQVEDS
# These are yes or no findings as the source states them, for the method shown. Some entries that bind do so weakly or less than the wild type.
# B1: v62-1b21 (hybridoma MAb) (antibody, V domains shown)
# VH: EVQLVESGGGLVRPGGSLRLSCAASGFTFSGYSINWVRQAPGKGLEWVSSISSSSNYIYYADSVKGRFTISRDNAKNSLYLQMNSLRAEDTAVYYCAREGFIAGTTFDAFDIWGQGTMVTVSS
# VL: DIQMTQSPSSLSASVGDRVTITCRASQGIRNDLGWYQQKPGKAPKRLIYAASSLQSGVPSRFSGSGSGTEFTLTISSLQPEDFATYYCLQHNGFPYTFGQGTKLEIKR
# notes: also called AGS62.21; v62.21
# Target: recombinant human FLT3 protein (human) (UniProt P36888)
# Assay: ELISA on FLT3 recombinant protein
binder,measurement,value
B1,binding,binds
